PubChem BioAssay AID1053208, Peter MacCallum Cancer Centre – 2014
Test: 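Find knock-downs that sensitise mouse osteosarcoma cells to doxorubicin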 (primary screen). System: mouse osteosarcoma cells, early-passage culture from an engineered mouse model of fibroblastic bone tumour. Reagents: siRNA pool against mouse genes, 40 nM. Duration: about 120 h (48 h before drug, then 72 h with drug). Treatment: doxorubicin 100 nM for 72 h, roughly 30-40% inhibitory dose. Read-out: 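Viability read as ATP luminescence after 72 h of 100 nM doxorubicin or none, duplicate wells averaged, scaled to non-targeting siRNA, then expressed as robust z-scores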. Scale: viability z-score with doxorubicin: higher = more viable cells under doxorubicin; viability z-score without drug: higher = more viable cells with knock-down alone. Rule for the call: 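Called active if knock-down leaves viability unchanged without drug (z within -2 to 2) but lowers it with doxorubicin (z at or under -2)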.
The deposit covers about 17,000 reagents; shown is a random part of them. 788 of them (4.7%) count as active. 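Calls rest on z-score classes alone; an extra cut-off of viability at most 70% of control was not applied to them.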 A number with no mark means an inactive call. Not all columns of the deposit are shown. Reagent sequences are not shown.

Knock-down of Bola3 came out at: combined z-score class no change with or without drug; viability z-score with doxorubicin -0.22; viability z-score without drug 1.18.
Rpp40 gave combined z-score class no change with or without drug; viability z-score with doxorubicin -1.12; viability z-score without drug -0.34.
Silencing of Kcnj10 resulted in: combined z-score class no change with or without drug; viability z-score with doxorubicin -1.35; viability z-score without drug -1.18.
Silencing of Krtap9-3 resulted in: combined z-score class no change with or without drug; viability z-score with doxorubicin -0.9; viability z-score without drug 1.85.
After knock-down of Carhsp1, the record shows combined z-score class no change with or without drug; viability z-score with doxorubicin -0.9; viability z-score without drug 0.34.
With knock-down of Snapc4, the screen gave combined z-score class no change with or without drug; viability z-score with doxorubicin -1.24; viability z-score without drug -1.18.
For Rbm43 the deposit lists combined z-score class no change with or without drug; viability z-score with doxorubicin -0.67; viability z-score without drug -0.34.
Silencing of Zfp354c resulted in: combined z-score class no change with or without drug; viability z-score with doxorubicin 1.24; viability z-score without drug -0.17.
For Ccdc32, the entry reads combined z-score class no change with or without drug; viability z-score with doxorubicin -0.9; viability z-score without drug -1.01.
Against Adgrl3, the entry reads combined z-score class high cell count without drug only; viability z-score with doxorubicin -0.67; viability z-score without drug 2.02.
Against Ints2 the deposit lists combined z-score class no change with or without drug; viability z-score with doxorubicin -0.45; viability z-score without drug 0.17.
After knock-down of Golga5, the screen gave combined z-score class no change with or without drug; viability z-score with doxorubicin 0.34; viability z-score without drug 0.17.

Quoted from above (4 entries):
Rpp40 | combined z-score class = no change with or without drug; viability z-score with doxorubicin = -1.12; viability z-score without drug = -0.34
Kcnj10 | combined z-score class = no change with or without drug; viability z-score with doxorubicin = -1.35; viability z-score without drug = -1.18
Krtap9-3 | combined z-score class = no change with or without drug; viability z-score with doxorubicin = -0.9; viability z-score without drug = 1.85
Carhsp1 | combined z-score class = no change with or without drug; viability z-score with doxorubicin = -0.9; viability z-score without drug = 0.34

The listing continues:
Rps8 gave combined z-score class low cell count with and without drug; viability z-score with doxorubicin -7.19; viability z-score without drug -5.9.
After knock-down of Ly6c1 the results were combined z-score class no change with or without drug; viability z-score with doxorubicin 0.56; viability z-score without drug -0.51.
Depletion of Glrb resulted in: combined z-score class no change with or without drug; viability z-score with doxorubicin 1.57; viability z-score without drug 1.52.
With knock-down of Sod3, the screen gave combined z-score class no change with or without drug; viability z-score with doxorubicin 1.12; viability z-score without drug 1.18.
Ubqln4 gave combined z-score class no change with or without drug; viability z-score with doxorubicin 0.34; viability z-score without drug 0.17.
Spz1 showed combined z-score class no change with or without drug; viability z-score with doxorubicin 0.67; viability z-score without drug 0.67.
After knock-down of Ufsp2, the screen gave combined z-score class no change with or without drug; viability z-score with doxorubicin -0.45; viability z-score without drug -0.17.
With knock-down of Clcn3, the record shows combined z-score class low cell count with doxorubicin only (active); viability z-score with doxorubicin -2.47; viability z-score without drug -1.69.
Silencing of Ccdc121rt1 resulted in: combined z-score class low cell count with doxorubicin only (active); viability z-score with doxorubicin -2.47; viability z-score without drug -1.52.
For Hcrtr2, the values are combined z-score class no change with or without drug; viability z-score with doxorubicin 0.11; viability z-score without drug -0.51.
Silencing of Or52e3 came out at: combined z-score class low cell count with doxorubicin only (active); viability z-score with doxorubicin -2.02; viability z-score without drug -0.84.
Knock-down of Prl5a1 resulted in: combined z-score class no change with or without drug; viability z-score with doxorubicin 0.22; viability z-score without drug -0.51.
After knock-down of Nkain1 the results were combined z-score class no change with or without drug; viability z-score with doxorubicin 0.22; viability z-score without drug 0.84.
Against 8030498B09Rik the deposit lists combined z-score class no change with or without drug; viability z-score with doxorubicin -1.12; viability z-score without drug -0.17.
Silencing of Pth2r came out at: combined z-score class high cell count with doxorubicin only; viability z-score with doxorubicin 2.02; viability z-score without drug 0.
Depletion of Or5p70 gave: combined z-score class low cell count without drug only; viability z-score with doxorubicin -1.35; viability z-score without drug -3.37.
